Measured values reported in the supplement of paper PMC10849652.
The other results are listed elsewhere or left out.

Amino acid sequences for entries named in this document (tags omitted). A change or cut given only in a name is not applied to a line headed by its entry.
UniProt Q99961: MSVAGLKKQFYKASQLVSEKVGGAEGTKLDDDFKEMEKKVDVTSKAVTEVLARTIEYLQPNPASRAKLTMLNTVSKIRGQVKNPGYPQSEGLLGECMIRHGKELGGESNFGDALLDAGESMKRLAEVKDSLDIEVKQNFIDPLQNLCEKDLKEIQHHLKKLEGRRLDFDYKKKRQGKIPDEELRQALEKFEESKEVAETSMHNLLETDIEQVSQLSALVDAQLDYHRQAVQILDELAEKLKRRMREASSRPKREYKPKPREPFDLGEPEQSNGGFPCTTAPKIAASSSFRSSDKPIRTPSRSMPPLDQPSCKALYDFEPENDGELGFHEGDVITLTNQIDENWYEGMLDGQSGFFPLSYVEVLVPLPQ
UniProt Q9BRV8: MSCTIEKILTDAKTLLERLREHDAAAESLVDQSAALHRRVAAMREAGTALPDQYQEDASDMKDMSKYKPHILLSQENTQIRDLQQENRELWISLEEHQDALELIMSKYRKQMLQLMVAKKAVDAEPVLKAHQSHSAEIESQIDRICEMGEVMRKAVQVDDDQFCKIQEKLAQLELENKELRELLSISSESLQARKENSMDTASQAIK
UniProt Q8N697: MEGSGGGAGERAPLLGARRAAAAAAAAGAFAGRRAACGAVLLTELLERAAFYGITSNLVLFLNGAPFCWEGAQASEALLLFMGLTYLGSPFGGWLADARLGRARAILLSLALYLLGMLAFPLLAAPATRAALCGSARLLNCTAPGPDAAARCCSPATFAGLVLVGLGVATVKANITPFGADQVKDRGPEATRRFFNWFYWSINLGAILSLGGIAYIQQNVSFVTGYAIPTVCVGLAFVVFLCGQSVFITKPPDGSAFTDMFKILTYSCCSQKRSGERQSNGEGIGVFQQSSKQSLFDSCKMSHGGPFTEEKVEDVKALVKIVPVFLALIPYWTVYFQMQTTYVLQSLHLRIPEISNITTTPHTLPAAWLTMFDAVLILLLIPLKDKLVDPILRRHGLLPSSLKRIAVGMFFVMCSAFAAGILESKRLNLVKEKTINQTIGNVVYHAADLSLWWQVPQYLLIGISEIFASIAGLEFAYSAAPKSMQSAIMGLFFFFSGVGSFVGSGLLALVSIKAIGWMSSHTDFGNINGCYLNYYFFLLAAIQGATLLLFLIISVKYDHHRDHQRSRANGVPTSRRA
UniProt O75563, whole entry, looked up: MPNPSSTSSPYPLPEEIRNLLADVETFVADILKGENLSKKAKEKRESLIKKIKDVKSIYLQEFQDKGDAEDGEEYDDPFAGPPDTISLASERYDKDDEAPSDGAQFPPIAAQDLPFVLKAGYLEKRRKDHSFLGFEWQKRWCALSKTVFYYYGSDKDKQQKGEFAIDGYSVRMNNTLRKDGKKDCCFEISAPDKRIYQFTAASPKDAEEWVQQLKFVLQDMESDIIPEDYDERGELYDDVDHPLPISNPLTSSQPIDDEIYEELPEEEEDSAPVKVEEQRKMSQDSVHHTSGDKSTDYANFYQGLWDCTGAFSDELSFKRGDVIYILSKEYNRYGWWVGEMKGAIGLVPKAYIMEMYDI
UniProt O43765: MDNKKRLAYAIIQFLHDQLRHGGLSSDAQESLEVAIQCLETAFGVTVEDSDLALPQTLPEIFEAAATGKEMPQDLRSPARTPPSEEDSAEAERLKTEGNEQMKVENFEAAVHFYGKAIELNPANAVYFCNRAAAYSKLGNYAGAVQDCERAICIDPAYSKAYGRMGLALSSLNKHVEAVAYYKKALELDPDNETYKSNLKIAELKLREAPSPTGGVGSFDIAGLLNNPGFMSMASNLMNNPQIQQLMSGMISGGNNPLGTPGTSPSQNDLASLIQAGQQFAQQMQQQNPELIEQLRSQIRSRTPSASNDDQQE
UniProt Q9NXA8: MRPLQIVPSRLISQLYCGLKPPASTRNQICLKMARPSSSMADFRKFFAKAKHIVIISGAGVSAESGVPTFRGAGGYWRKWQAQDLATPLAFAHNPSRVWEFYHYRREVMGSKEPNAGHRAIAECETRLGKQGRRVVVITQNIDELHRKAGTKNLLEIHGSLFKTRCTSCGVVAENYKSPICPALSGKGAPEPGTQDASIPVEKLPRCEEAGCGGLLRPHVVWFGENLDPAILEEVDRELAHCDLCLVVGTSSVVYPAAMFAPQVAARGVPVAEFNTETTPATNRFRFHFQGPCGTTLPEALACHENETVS
UniProt Q8WUM9: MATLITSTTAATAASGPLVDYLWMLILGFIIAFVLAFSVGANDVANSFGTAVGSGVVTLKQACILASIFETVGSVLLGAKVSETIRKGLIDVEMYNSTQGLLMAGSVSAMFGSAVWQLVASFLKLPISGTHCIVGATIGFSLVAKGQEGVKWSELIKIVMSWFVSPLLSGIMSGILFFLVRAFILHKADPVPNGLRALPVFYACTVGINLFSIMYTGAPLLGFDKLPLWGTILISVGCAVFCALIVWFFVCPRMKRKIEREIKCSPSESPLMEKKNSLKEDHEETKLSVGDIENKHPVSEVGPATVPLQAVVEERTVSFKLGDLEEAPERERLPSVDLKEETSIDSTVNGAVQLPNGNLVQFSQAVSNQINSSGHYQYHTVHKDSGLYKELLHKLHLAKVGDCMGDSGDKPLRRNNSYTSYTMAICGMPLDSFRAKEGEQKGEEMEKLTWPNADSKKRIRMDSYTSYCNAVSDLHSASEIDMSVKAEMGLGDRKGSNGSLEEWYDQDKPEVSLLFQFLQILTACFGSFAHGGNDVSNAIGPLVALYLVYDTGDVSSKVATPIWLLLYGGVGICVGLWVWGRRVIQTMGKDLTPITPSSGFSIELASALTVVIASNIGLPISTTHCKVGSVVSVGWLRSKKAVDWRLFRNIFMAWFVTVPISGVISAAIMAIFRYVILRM
UniProt Q8IXJ6: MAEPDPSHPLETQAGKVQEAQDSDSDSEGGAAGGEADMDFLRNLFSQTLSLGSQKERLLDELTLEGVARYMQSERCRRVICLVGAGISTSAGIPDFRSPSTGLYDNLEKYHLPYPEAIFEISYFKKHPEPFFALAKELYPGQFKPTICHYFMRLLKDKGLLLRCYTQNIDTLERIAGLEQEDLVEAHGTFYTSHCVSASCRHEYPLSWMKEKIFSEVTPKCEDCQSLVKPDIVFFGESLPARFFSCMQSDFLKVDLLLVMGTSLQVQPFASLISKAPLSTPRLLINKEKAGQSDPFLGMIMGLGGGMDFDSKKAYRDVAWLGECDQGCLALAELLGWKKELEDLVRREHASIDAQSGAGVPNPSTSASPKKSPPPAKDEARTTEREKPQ
UniProt Q8IX90, whole entry, looked up: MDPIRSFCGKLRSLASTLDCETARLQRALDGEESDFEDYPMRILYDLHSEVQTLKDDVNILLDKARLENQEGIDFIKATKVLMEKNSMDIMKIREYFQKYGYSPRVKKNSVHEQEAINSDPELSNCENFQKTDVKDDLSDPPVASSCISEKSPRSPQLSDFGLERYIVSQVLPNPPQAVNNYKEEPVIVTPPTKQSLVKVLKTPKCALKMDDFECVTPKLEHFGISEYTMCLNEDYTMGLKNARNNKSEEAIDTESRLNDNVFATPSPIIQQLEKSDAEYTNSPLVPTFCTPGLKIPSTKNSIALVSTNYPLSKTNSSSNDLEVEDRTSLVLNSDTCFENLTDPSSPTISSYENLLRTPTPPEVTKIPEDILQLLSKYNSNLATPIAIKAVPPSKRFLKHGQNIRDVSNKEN
UniProt Q15758: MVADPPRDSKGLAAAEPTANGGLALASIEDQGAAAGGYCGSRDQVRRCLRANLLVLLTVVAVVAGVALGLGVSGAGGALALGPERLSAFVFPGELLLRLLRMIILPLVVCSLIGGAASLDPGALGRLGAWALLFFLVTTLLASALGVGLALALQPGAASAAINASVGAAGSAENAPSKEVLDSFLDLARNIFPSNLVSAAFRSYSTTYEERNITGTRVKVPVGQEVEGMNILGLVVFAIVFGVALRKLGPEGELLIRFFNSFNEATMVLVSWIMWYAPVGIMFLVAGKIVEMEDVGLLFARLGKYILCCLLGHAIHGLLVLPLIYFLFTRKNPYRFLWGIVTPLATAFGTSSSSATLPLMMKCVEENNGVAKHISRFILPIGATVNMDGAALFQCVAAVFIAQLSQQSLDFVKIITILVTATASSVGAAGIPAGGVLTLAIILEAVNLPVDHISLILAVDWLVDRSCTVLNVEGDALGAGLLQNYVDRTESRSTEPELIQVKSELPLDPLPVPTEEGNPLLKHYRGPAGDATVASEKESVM
UniProt P34897: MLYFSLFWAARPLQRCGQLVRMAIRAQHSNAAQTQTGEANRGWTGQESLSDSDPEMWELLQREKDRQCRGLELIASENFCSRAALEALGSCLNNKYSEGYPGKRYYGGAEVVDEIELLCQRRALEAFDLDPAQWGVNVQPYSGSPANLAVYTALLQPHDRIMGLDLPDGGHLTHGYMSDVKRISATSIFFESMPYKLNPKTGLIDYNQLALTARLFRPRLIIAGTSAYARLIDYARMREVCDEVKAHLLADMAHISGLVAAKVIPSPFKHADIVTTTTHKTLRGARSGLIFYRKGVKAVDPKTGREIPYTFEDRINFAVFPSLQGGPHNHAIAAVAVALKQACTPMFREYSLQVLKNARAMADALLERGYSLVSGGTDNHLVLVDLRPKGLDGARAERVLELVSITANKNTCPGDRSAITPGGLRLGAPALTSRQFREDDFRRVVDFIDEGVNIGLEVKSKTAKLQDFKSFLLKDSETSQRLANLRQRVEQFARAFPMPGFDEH
UniProt P29353: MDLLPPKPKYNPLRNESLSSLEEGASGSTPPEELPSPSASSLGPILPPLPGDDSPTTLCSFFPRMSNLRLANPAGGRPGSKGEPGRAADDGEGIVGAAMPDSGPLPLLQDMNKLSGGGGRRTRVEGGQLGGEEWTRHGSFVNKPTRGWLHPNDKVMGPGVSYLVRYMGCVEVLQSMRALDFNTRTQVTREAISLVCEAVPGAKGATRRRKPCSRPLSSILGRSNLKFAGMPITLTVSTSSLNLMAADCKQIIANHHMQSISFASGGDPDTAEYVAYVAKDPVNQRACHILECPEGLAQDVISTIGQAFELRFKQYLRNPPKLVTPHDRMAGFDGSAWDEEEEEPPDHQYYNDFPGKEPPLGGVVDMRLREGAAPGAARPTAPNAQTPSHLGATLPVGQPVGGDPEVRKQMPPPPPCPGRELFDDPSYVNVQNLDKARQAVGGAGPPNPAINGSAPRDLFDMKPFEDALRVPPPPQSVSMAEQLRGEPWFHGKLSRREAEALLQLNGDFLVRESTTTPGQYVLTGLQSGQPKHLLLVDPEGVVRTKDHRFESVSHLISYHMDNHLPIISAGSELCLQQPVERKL
UniProt Q5FBB7: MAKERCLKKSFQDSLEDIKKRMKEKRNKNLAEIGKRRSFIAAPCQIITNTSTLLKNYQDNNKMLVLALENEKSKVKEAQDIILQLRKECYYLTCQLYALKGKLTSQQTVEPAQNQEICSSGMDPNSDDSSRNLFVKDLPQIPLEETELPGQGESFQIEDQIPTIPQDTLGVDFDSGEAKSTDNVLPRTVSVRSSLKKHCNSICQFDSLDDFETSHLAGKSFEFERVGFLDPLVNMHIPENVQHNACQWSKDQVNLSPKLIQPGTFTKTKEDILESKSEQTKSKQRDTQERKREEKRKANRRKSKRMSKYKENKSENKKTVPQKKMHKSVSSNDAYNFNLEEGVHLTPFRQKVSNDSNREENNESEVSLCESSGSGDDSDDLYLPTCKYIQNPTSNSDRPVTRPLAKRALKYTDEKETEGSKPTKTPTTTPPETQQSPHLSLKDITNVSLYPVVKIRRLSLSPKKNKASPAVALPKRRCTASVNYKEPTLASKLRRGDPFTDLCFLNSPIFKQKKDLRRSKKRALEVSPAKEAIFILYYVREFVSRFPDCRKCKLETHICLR
UniProt Q96NB2: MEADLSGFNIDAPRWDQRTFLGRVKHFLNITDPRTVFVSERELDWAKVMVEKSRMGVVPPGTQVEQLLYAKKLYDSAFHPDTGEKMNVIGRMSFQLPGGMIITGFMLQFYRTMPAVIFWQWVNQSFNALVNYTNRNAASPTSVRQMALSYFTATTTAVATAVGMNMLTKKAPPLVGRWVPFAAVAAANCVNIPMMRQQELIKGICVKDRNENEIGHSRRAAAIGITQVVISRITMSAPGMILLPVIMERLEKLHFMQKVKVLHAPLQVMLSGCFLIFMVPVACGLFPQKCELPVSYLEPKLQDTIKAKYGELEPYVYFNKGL
UniProt P50454: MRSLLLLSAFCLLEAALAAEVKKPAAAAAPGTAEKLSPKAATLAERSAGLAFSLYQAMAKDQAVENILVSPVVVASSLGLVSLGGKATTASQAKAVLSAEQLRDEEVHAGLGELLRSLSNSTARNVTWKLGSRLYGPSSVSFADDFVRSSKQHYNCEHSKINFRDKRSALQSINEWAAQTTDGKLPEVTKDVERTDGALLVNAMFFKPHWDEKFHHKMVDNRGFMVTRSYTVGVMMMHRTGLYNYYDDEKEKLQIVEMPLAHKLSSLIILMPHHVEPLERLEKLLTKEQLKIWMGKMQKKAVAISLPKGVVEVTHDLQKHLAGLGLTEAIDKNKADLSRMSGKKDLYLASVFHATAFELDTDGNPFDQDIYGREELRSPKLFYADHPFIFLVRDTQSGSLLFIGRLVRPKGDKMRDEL

Assays:
Assay in all cases: log2 fold change, soluble protein after heating vs DMSO (PISA); higher = thermal stabilisation; K562 lysate, 10 uM; active = over 0.2 and 3.5 SD of the protein, either way, in both replicates (recomputed)
lapatinib = compound: CS(=O)(=O)CCNCc1ccc(-c2ccc3ncnc(Nc4ccc(OCc5cccc(F)c5)c(Cl)c4)c3c2)o1 [lapatinib]
In short: (§1)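 Pellets of K562 cells were dounce-homogenised in PBS pH 7.4 with 1 mM MgCl2, and the crude extract was held at 1 mg/mL protein for a 30 min treatment with 10 μM compound. Aliquots were heated for 3 min over 48°C-58°C and pooled before NP-40 was added to 0.5% at 4°C. The supernatant from 21,000xg for 90 min was quantified by TMTpro 16plex LC-MS/MS with channel sums equalised. Values are reported from duplicates as log-two fold change in thermal stability relative to solvent controls.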

pictilisib = compound: CS(=O)(=O)N1CCN(Cc2cc3nc(-c4cccc5[nH]ncc45)nc(N4CCOCC4)c3s2)CC1 [pictilisib]
In short: as §1

crizotinib = compound: C[C@@H](Oc1cc(-c2cnn(C3CCNCC3)c2)cnc1N)c1c(Cl)ccc(F)c1Cl [crizotinib]
In short: as §1

[1] = compound: C[C@H](C1=CC=C(C=C1)C(=O)NC2=C3C=CNC3=NC=C2)N
In short: as §1

duvelisib = compound: C[C@H](Nc1ncnc2nc[nH]c12)c1cc2cccc(Cl)c2c(=O)n1-c1ccccc1 [duvelisib]
In short: as §1

gandotinib = compound: Cc1cc(Nc2cc(CN3CCOCC3)c3nc(C)c(Cc4ccc(Cl)cc4F)n3n2)n[nH]1 [gandotinib]
In short: as §1

tozasertib = compound: Cc1cc(Nc2cc(N3CCN(C)CC3)nc(Sc3ccc(NC(=O)C4CC4)cc3)n2)n[nH]1 [tozasertib]
In short: as §1

doramapimod = compound: Cc1ccc(-n2nc(C(C)(C)C)cc2NC(=O)Nc2ccc(OCCN3CCOCC3)c3ccccc23)cc1 [doramapimod]
In short: as §1

bafetinib = compound: Cc1ccc(NC(=O)c2ccc(CN3CC[C@H](N(C)C)C3)c(C(F)(F)F)c2)cc1Nc1nccc(-c2cncnc2)n1 [bafetinib]
In short: as §1

[2] = compound: Cc1cccc(CC(=O)N2CCc3c2ccc(-c2cn(C)c4ncnc(N)c24)c3F)n1
In short: as §1

Target	log2 fold change (lapatinib)	log2 fold change (pictilisib)	log2 fold change (crizotinib)	log2 fold change [1]	log2 fold change (duvelisib)	log2 fold change (gandotinib)	log2 fold change (tozasertib)	log2 fold change (doramapimod)	log2 fold change (bafetinib)	log2 fold change [2]
SH3GL1 (UniProt Q99961)	inactive: 0.013	inactive: 0.005	inactive: -0.017	inactive: 0.028	inactive: 0.023	inactive: 0.009	inactive: 0.013	inactive: 0.025	inactive: -0.001	inactive: -0.063
SERINC3 (UniProt Q13530)	inactive: -0.052	inactive: -0.028	inactive: -0.07	active: -0.38	inactive: -0.001	inactive: 0.16	inactive: -0.012	inactive: 0.03	inactive: -0.014	inactive: 0.075
SIKE1 (UniProt Q9BRV8)	inactive: 0.003	inactive: -0.039	inactive: -0.031	inactive: 0.047	inactive: 0.018	inactive: -0.009	inactive: 0.036	inactive: -0.072	inactive: -0.162	inactive: -0.053
SLC15A4 (UniProt Q8N697)	inactive: -0.058	inactive: -0.037	inactive: 0.002	inactive: -0.051	inactive: 0.03	inactive: 0.054	inactive: 0.057	inactive: 0.123	inactive: 0	inactive: -0.132
SKAP2 (UniProt O75563)	inactive: -0.003	inactive: -0.007	inactive: 0.042	inactive: -0.06	inactive: -0.037	inactive: 0.067	inactive: 0.026	inactive: 0.027	inactive: -0.056	inactive: 0.08
SH3GL3 isoform 3 (UniProt Q99963)	inactive: -0.07	inactive: -0.087	inactive: -0.04	active: -0.548	inactive: -0.005	inactive: 0.326	inactive: 0.028	inactive: 0.016	inactive: -0.147	active: 0.446
SGTA (UniProt O43765)	inactive: 0.008	inactive: -0.027	inactive: 0.01	inactive: 0.026	inactive: 0.016	inactive: 0.007	inactive: 0.002	inactive: -0.009	inactive: 0.03	inactive: -0.045
SHOC2 (UniProt Q9UQ13)	inactive: 0.021	inactive: -0.032	inactive: 0.001	inactive: -0.142	inactive: -0.003	inactive: 0.029	inactive: -0.091	inactive: -0.001	inactive: 0.023	inactive: 0.079
SIRT5 (UniProt Q9NXA8)	inactive: 0.02	inactive: -0.012	inactive: -0.004	inactive: -0.006	inactive: -0.023	inactive: 0.007	inactive: 0.046	inactive: -0.03	inactive: -0.057	inactive: -0.146
SLC20A1 (UniProt Q8WUM9)	inactive: -0.002	inactive: -0.065	inactive: -0.009	inactive: 0.016	inactive: 0.038	inactive: -0.016	inactive: -0.006	inactive: 0.042	inactive: -0.075	inactive: -0.013
SH3BP5L (UniProt Q7L8J4)	inactive: 0.006	inactive: -0.004	inactive: -0.01	inactive: -0.05	inactive: 0.001	inactive: 0.031	inactive: 0.098	inactive: -0.044	inactive: 0.001	inactive: 0.015
SIRT2 (UniProt Q8IXJ6)	inactive: 0.063	inactive: 0.128	inactive: -0.03	inactive: -0.021	inactive: 0.013	inactive: 0.074	inactive: -0.037	inactive: 0.082	inactive: 0.092	inactive: 0.066
SETMAR (UniProt Q53H47)	inactive: -0.015	inactive: -0.035	inactive: -0.072	inactive: 0.026	inactive: 0.003	inactive: 0.071	inactive: -0.29	inactive: 0.012	inactive: 0.031	inactive: 0.01
SKA3 (UniProt Q8IX90)	inactive: 0.009	inactive: -0.022	inactive: -0.029	inactive: -0.008	inactive: -0.022	inactive: -0.011	inactive: -0.008	inactive: 0.002	inactive: 0.027	inactive: 0.034
SLC1A5 (UniProt Q15758)	inactive: 0.008	inactive: 0.036	inactive: 0.017	inactive: -0.13	inactive: 0.012	inactive: 0.054	inactive: -0.029	inactive: -0.022	inactive: 0.02	inactive: 0.047
SLC12A2 (UniProt P55011)	inactive: -0.067	inactive: -0.015	inactive: -0.082	inactive: 0.111	inactive: -0.089	inactive: -0.083	inactive: -0.02	inactive: -0.003	inactive: -0.046	inactive: -0.032
SERPINB9 (UniProt P50453)	inactive: -0.002	inactive: -0.001	inactive: 0.012	inactive: 0.015	inactive: -0.008	inactive: -0.001	inactive: -0.026	inactive: -0.009	inactive: 0.099	inactive: -0.049
SGF29 (UniProt Q96ES7)	inactive: -0.009	inactive: -0.003	inactive: -0.013	inactive: -0.029	inactive: -0.06	inactive: 0.037	inactive: -0.038	inactive: 0.028	inactive: 0.011	inactive: -0.001
SIN3A (UniProt Q96ST3)	inactive: -0.004	inactive: -0.028	inactive: -0.006	inactive: 0.004	inactive: 0.012	inactive: -0.027	inactive: -0.015	inactive: 0.004	inactive: -0.045	inactive: 0.001
SHMT2 (UniProt P34897)	inactive: 0.012	inactive: -0.013	inactive: -0.011	inactive: -0.009	inactive: 0.007	inactive: 0.016	inactive: 0.004	inactive: 0.009	inactive: 0.023	inactive: -0.026
SH3GLB1 isoform 2 (UniProt Q9Y371)	inactive: 0.059	inactive: 0.03	inactive: 0.031	inactive: -0.004	inactive: -0.018	inactive: 0.055	inactive: 0.015	inactive: 0.142	inactive: -0.111	inactive: 0.062
SLC19A1 (UniProt P41440)	inactive: -0.055	inactive: 0.005	inactive: -0.002	active: -0.203	inactive: -0.037	inactive: 0.148	inactive: -0.021	inactive: 0.004	inactive: -0.053	inactive: 0.07
SETDB1 (UniProt Q15047)	inactive: -0.066	inactive: -0.009	inactive: 0.014	inactive: -0.123	inactive: 0.007	inactive: 0	inactive: -0.015	inactive: 0.015	inactive: -0.065	inactive: 0.053
SLC11A1, A0A0A0MTL3	inactive: -0.112									
SHC1 isoform 6 (UniProt P29353)	inactive: 0.019	inactive: -0.057	inactive: 0.001	active: 0.577	inactive: 0.005	inactive: -0.106	inactive: 0.005	inactive: 0.065	inactive: -0.034	inactive: -0.175
SF3B2 (UniProt Q13435)	inactive: -0.008	inactive: 0	inactive: 0.014	inactive: -0.072	inactive: -0.002	inactive: -0.006	inactive: -0.006	inactive: -0.009	inactive: -0.013	inactive: 0.024
SGO1 (UniProt Q5FBB7)	inactive: 0.035	inactive: -0.03	inactive: -0.063	inactive: -0.051	inactive: -0.019	inactive: 0.016	inactive: 0.026	inactive: 0.031	inactive: 0.018	inactive: 0.064
SF3A1 (UniProt Q15459)	inactive: 0.003	inactive: 0.004	inactive: 0.003	inactive: -0.077	inactive: -0.006	inactive: 0.044	inactive: -0.001	inactive: 0.012	inactive: -0.013	inactive: 0.079
SFXN2 (UniProt Q96NB2)	inactive: -0.038	inactive: 0.047	inactive: -0.065	inactive: 0.073	inactive: 0.051	inactive: -0.101	inactive: 0.031	inactive: -0.043	inactive: -0.072	inactive: 0.05
SERPINH1 (UniProt P50454)	inactive: -0.028	inactive: -0.002	inactive: 0.012	inactive: -0.048	inactive: -0.002	inactive: 0.032	inactive: -0.015	inactive: -0.023	inactive: -0.002	inactive: 0.004

Two records drawn at random from the list so far, as already listed:
Target	log2 fold change (lapatinib)	log2 fold change (pictilisib)	log2 fold change (crizotinib)	log2 fold change [1]	log2 fold change (duvelisib)	log2 fold change (gandotinib)	log2 fold change (tozasertib)	log2 fold change (doramapimod)	log2 fold change (bafetinib)	log2 fold change [2]
SIN3A (UniProt Q96ST3)	inactive: -0.004	inactive: -0.028	inactive: -0.006	inactive: 0.004	inactive: 0.012	inactive: -0.027	inactive: -0.015	inactive: 0.004	inactive: -0.045	inactive: 0.001
SERPINH1 (UniProt P50454)	inactive: -0.028	inactive: -0.002	inactive: 0.012	inactive: -0.048	inactive: -0.002	inactive: 0.032	inactive: -0.015	inactive: -0.023	inactive: -0.002	inactive: 0.004
